The experiment deals with T1, RecA (E. coli), P0A7G6.
T1 chain: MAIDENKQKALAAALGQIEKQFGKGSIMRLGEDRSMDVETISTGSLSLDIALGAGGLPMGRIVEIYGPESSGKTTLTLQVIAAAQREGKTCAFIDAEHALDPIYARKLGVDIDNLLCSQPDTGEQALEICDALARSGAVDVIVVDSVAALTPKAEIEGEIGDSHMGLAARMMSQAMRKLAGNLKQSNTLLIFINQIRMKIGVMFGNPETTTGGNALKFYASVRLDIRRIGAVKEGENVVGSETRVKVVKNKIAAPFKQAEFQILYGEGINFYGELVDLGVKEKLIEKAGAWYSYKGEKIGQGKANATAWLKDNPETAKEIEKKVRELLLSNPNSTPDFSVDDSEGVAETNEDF
The experiment can be described thus: two-hybrid. Conditions: remark: other sources report otherwise.

Results are given in words; binding and its absence hold for the method and conditions named. Some binding calls cover weakened binding; strength is not graded here.

B1: RecN, P05824 1-553 (protein)
chain: MLAQLTISNFAIVRELEIDFHSGMTVITGETGAGKSIAIDALGLCLGGRAEADMVRTGAARADLCARFSLKDTPAALRWLEENQLEDGHECLLRRVISSDGRSRGFINGTAVPLSQLRELGQLLIQIHGQHAHQLLTKPEHQKFLLDGYANETSLLQEMTARYQLWHQSCRDLAHHQQLSQERAARAELLQYQLKELNEFNPQPGEFEQIDEEYKRLANSGQLLTTSQNALALMADGEDANLQSQLYTAKQLVSELIGMDSKLSGVLDMLEEATIQIAEASDELRHYCDRLDLDPNRLFELEQRISKQISLARKHHVSPEALPQYYQSLLEEQQQLDDQADSQETLALAVTKHHQQALEIARALHQQRQQYAEELAQLITDSMHALSMPHGQFTIDVKFDEHHLGADGADRIEFRVTTNPGQPMQPIAKVASGGELSRIALAIQVITARKMETPALIFDEVDVGISGPTAAVVGKLLRQLGESTQVMCVTHLPQVAGCGHQHYFVSKETDGAMTETHMQSLNKKARLQELARLLGGSEVTRNTLANAKELLAA
With B1, the binding result is on record as “binds”.
